# No constants are given. Whether binding was seen depends on the method and setting. Binding can be weak; no strength is given.
# Amino acid sequences for entries named in this document (tags omitted). A change or cut given only in a name is not applied to a line headed by its entry.
# UniProt Q9CWH4: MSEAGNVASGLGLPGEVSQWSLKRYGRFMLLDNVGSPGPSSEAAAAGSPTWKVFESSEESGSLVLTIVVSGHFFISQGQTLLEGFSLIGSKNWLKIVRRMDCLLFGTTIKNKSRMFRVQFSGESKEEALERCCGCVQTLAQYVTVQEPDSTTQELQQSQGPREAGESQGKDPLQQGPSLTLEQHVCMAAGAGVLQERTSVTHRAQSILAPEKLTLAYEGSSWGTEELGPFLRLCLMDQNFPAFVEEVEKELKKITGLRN
# UniProt Q6NZQ4: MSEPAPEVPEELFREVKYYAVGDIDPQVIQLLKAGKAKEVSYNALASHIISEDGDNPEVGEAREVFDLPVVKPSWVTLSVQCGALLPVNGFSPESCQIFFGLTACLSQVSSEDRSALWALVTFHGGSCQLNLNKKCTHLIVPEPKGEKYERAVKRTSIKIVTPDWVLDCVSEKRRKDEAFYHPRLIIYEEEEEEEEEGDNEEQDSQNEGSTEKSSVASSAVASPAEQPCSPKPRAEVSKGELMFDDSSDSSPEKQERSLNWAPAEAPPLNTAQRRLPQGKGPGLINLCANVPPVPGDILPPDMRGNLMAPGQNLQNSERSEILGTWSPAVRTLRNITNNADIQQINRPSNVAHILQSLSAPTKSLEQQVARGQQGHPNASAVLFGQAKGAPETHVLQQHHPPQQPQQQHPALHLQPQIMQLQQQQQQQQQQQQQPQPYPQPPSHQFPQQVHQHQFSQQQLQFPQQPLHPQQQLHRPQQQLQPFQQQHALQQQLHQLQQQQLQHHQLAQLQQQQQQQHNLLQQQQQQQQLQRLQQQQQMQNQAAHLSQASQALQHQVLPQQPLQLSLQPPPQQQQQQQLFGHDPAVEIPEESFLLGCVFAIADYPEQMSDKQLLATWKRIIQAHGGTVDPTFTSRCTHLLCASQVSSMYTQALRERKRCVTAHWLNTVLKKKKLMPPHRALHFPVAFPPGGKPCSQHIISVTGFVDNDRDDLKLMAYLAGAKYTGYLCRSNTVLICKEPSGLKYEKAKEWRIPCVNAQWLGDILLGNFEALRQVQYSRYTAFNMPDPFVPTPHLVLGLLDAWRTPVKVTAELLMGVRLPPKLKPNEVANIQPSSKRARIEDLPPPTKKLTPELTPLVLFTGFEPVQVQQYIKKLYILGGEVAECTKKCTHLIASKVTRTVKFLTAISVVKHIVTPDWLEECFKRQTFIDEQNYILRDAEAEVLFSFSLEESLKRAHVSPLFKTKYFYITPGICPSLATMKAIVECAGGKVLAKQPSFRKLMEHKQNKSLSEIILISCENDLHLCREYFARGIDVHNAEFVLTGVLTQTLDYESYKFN
# UniProt A0A140LI88: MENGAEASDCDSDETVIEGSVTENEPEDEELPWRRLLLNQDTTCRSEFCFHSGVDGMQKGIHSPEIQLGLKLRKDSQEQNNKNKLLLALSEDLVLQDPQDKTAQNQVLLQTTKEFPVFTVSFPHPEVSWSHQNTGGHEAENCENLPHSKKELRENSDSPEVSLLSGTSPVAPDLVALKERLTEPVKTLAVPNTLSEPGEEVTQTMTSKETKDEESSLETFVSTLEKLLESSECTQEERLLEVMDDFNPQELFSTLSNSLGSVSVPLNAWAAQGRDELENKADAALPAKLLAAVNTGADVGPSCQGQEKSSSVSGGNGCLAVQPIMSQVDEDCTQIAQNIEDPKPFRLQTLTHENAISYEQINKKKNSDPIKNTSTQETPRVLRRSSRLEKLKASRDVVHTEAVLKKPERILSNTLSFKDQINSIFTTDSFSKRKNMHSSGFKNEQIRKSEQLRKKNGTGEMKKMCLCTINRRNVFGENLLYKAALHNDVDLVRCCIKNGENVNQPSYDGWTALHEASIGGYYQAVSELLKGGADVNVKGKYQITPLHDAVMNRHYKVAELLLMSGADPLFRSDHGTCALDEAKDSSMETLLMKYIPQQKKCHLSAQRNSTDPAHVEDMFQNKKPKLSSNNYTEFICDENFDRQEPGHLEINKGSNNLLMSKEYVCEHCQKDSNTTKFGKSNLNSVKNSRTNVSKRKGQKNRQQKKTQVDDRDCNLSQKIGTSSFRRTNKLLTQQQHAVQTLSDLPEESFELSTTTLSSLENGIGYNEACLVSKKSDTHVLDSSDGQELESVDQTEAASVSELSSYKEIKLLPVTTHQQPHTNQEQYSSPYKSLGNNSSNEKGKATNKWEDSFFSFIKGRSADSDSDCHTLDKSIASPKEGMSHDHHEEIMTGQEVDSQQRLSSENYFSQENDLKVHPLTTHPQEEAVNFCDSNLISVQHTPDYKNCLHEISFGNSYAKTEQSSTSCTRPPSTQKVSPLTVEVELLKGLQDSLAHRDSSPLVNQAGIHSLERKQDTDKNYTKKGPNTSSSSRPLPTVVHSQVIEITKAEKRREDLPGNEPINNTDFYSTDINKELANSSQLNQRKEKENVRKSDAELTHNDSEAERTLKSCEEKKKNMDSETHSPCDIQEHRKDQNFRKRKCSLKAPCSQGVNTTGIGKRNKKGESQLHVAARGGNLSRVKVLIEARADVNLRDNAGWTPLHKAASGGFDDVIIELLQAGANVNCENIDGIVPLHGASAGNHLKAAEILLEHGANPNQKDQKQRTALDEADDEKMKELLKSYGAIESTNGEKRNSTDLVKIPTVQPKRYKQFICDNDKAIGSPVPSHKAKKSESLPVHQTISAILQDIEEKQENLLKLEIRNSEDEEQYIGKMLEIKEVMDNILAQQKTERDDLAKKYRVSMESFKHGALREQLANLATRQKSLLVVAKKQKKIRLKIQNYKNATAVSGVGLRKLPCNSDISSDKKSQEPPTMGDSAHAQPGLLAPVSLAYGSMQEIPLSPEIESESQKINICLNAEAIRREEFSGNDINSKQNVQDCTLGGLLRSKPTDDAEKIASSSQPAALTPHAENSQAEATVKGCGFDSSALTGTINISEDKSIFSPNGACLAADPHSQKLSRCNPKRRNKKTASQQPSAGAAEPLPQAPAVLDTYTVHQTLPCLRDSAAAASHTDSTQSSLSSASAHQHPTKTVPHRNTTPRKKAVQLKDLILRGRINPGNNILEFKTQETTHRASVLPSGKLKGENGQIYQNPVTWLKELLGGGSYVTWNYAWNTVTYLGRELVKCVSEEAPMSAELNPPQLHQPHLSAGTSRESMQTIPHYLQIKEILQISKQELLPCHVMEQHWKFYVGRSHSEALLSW
# How the values were obtained:
# Test in all cases: two-hybrid; yeast two-hybrid of full-length ANKRD31 (wild type, EA, ΔC) as Gal4 AD and BD fusions with full-length or parts of REC114, MEI1, PTIP, ZMYM3; selection by amino acid dropouts and aureobasidin at moderate (+) and high (++) stringency
# [1] = molecular target: REC114N, REC114 residues 1–158 (N-terminal pleckstrin homology domain) (mouse) (UniProt Q9CWH4)
# MEI1 = molecular target: T1, MEI1 (UniProt Q9D4I2)
# T1 sequence: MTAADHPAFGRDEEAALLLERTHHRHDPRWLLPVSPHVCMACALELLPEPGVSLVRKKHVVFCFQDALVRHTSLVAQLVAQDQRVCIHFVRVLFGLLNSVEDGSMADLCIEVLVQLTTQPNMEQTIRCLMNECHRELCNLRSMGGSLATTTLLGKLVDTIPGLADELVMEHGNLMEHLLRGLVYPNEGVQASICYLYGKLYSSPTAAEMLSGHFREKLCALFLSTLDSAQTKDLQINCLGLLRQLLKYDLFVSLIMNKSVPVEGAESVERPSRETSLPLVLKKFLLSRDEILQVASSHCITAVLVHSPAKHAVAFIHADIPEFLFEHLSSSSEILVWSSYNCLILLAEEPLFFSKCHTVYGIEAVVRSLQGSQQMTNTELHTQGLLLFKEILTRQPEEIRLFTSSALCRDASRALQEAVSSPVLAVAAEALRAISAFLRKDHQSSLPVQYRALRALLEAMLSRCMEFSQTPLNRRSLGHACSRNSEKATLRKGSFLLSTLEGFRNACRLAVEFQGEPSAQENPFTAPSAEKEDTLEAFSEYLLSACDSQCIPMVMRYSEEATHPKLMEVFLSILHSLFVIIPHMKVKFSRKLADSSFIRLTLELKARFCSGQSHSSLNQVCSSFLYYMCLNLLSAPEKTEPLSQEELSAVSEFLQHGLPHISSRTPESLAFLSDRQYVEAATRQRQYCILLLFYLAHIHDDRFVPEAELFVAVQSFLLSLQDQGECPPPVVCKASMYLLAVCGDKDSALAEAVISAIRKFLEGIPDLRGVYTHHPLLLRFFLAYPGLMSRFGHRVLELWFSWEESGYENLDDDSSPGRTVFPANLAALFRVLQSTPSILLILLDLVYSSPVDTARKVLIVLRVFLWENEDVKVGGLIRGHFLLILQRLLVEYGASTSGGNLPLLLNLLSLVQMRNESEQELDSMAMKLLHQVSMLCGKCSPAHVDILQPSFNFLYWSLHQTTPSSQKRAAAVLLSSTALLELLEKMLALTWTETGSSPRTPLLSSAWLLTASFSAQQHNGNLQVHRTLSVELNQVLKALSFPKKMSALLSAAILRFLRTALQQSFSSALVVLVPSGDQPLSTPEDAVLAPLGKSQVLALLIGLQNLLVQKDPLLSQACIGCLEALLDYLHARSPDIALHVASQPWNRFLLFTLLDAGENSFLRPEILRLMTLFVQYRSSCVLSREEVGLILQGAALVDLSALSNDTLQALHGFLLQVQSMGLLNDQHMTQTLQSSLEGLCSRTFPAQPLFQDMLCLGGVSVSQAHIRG
# ZMYM3 = molecular target: T2, ZMYM3 (UniProt Q9JLM4)
# T2 sequence: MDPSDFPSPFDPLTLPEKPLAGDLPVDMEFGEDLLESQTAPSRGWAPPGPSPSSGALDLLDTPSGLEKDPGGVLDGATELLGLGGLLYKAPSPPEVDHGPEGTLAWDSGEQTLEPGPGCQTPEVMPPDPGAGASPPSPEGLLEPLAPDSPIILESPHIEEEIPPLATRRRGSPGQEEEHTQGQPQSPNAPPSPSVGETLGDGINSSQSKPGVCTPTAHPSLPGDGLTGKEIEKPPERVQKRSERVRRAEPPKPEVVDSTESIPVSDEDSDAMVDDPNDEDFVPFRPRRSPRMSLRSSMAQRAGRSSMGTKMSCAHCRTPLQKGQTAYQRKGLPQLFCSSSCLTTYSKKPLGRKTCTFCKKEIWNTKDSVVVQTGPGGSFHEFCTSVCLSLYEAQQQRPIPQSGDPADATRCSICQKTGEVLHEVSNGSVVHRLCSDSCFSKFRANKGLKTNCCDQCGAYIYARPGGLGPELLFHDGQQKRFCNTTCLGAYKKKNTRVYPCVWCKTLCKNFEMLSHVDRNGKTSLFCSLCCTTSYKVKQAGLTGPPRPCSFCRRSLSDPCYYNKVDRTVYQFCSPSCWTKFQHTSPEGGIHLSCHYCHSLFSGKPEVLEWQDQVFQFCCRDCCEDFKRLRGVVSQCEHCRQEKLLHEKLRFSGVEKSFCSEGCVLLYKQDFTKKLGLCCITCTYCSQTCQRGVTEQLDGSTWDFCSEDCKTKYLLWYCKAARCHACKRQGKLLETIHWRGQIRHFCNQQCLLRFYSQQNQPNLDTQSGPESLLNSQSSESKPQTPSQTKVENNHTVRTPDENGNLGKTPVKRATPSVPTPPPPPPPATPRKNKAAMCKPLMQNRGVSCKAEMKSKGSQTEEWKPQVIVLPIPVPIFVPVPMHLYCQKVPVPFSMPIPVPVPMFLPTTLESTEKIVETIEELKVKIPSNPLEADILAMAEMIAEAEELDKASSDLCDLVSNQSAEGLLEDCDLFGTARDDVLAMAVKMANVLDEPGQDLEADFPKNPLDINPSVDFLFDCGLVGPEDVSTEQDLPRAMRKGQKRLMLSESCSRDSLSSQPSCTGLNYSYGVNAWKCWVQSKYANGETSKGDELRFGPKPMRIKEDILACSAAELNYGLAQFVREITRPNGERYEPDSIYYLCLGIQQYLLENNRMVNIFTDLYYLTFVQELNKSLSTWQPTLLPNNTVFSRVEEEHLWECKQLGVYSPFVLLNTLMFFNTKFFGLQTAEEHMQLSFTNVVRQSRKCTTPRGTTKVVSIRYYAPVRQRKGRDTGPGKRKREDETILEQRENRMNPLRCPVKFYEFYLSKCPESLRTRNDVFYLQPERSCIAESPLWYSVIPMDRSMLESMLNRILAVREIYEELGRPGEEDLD
# PTIP = PTIP (UniProt Q6NZQ4)
binding [1],binding (MEI1),binding (ZMYM3),binding (PTIP),Substance
binds,,,,"ANKRD31 (Ankyrin Repeat Domain Containing 31), full-length wild type (from UniProt A0A140LI88 1-1857)"
no binding,binds,binds,binds,"ANKRD31-ΔC, otherwise full-length ANKRD31 with the C-terminal frameshift truncation (from UniProt A0A140LI88)"

# Reference: paper PMC10666023
